Measured values: PubChem BioAssay AID1273 (Columbia University Molecular Screening Center, 2008)
In all, about 130,000 compounds went through this assay and about 1,200 (0.92%) were called active. This list was built around the results that the source calls inconclusive (neither active nor inactive); the mix of calls is not that of the screen.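 How the source made its calls: active means inhibition above the mean plus 3 SD, with well images judged a real hit on visual review (cut at about 60% in these data, passing the limit was not always enough); inconclusive means inhibition over the cutoff but images rejected on review; inactive means inhibition not above the cutoff.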

Assay: insulin gene promoter suppression in islet cells – imaging, TRM-6 cells (human fetal islet line), eGFP reporter, cell count, primary screen (AID 1273)
Conditions: at 2 µM, active compounds read high
For `CN1CCC(N(C)c2ncnc3ccc(Br)cc23)CC1`, the inhibition was inconclusive: 75%.
With `Cn1c(=O)cc(SCC(=O)N2CCC3(CC2)OCCO3)c2ccc(Cl)cc21` the inhibition was inconclusive: 81%.
In the case of `CC1CN(CCc2ccccc2)CC(C)O1` (stereo not drawn), the inhibition is reported as active: 70.3%.
With `O=C(c1cc2cc3ccc(Cl)cc3nc2o1)N1CCC2(CC1)OCCO2` the inhibition was active: 84.4%.
With `COC(=O)c1ccc(N2C(=O)CC(N3CCC(n4c(=O)[nH]c5ccccc54)CC3)C2=O)cc1` (stereo not drawn) the inhibition was inactive: -35.5%.
With `CSc1ccc(C(c2c(O)c3ccccc3oc2=O)c2c(C)n(C)n(-c3ccccc3)c2=O)cc1` (stereo not drawn) the inhibition was inconclusive: 80%.
In the case of `COC1CCCCC1NCCc1ccccc1` (stereo not drawn), the inhibition is reported as inactive: -21.4%.
With `c1ccc2c(c1)Nc1ccccc1S2` the inhibition was inconclusive: 61.9%.
With `N/C(=N/[N+](=O)[O-])N1CCN(C(=O)c2ccc(Cl)cc2)CC1` the inhibition was inconclusive: 71.4%.
In the case of `COc1ccc(C[C@@H]2c3cc(O)c(OC)cc3CCN2C)cc1O`, the inhibition is reported as inactive: 28.6%.
In the case of `CCn1c(O)c(C=Nc2cc(Cl)ccc2Cl)c(=O)n(CC)c1=O`, the inhibition is reported as inconclusive: 64.3%.
In the case of `O=C1NC(=O)N(c2cccc(Cl)c2)C(=O)/C1=C\c1ccc(Sc2nc3ccccc3[nH]2)o1`, the inhibition is reported as inactive: 21.4%.
With `CCOC(=O)c1c(-c2ccccc2)oc2ccc(OC(=O)N(C)C)cc12` the inhibition was inconclusive: 72.7%.
For `Cc1nn(-c2ccccc2)c2c1C(c1ccc3c(c1)OCO3)SCC(=O)N2` (stereo not drawn), the inhibition was active: 79.3%.
With `Cc1ccccc1-n1c(-c2ccco2)nc2ccccc2c1=O` the inhibition was inconclusive: 80%.
For `NC(=O)c1cn(C2OC(CO)C(O)C2O)c2ncnc(N)c12` (stereo not drawn), the inhibition was active: 63.6%.
With `CCN1CCN(c2ncnc3ccc(Br)cc23)CC1` the inhibition was inconclusive: 81.2%.
In the case of `COc1ccc(C(c2c(O)c3ccccc3oc2=O)c2c(C)n(C)n(-c3ccccc3)c2=O)cc1` (stereo not drawn), the inhibition is reported as active: 64.3%.
For `O=P(O)(O)COc1ccccc1O`, the inhibition was inconclusive: 72.7%.
With `C=CCn1c(O)c(C(C)=Nc2ccc(C(=O)OCC)cc2)c(=O)[nH]c1=O` the inhibition was inconclusive: 75%.
For `O=C(CCC(=O)N1CCC2(CC1)OCCO2)Nc1nnc(C(F)(F)F)s1`, the inhibition was inconclusive: 71.4%.
For `CCCC(C)C1(CC)C(=O)NC(=Nc2ccc(F)cc2)NC1=O` (stereo not drawn), the inhibition was inactive: -67.7%.
With `CN(CC(=O)Nc1ccccc1-c1ccccc1)C1CCCCC1` the inhibition was inconclusive: 81.4%.
For `CCCCn1c(O)c(C(C)=NC(C)c2ccccc2)c(=O)[nH]c1=O` (stereo not drawn), the inhibition was inconclusive: 72.7%.
For `Fc1ccc(NC2=NCCS2)cc1Cl`, the inhibition was inconclusive: 90%.
For `CC12CN3CC(C)(CN(C1)C31CCOCC1)C2=O`, the inhibition was inconclusive: 75%.
With `CC(C)=CCC12CN3CCN(CC(C3)C1=O)C2` the inhibition was inconclusive: 75%.
In the case of `Nc1nnc(CCN2CCCCC2)s1`, the inhibition is reported as inconclusive: 35.7%.
In the case of `O=S(=O)(c1ccccc1)N1CN2CCN(C2)C1`, the inhibition is reported as active: 85.7%.
For `CN(C)c1cccc2c(C#N)ccc(N(C)C)c12`, the inhibition was active: 86.7%.
In the case of `O=C(O)c1cccc2c1NC(c1cccc([N+](=O)[O-])c1)C1CC(Sc3ccccc3[N+](=O)[O-])C(Cl)C21` (stereo not drawn), the inhibition is reported as inconclusive: 72.2%.
With `O=C1CC(C(=O)N2CCC3(CC2)OCCO3)CN1CCc1ccccc1` (stereo not drawn) the inhibition was active: 80%.
With `CCN1C(=O)C(=C2C=C(C)N(Cc3ccco3)C(C)=C2)C(=O)N(CC)C1=S` the inhibition was inconclusive: 72.7%.
